For 42 sequences, binding signal results are on record in PMC7819943, “Rice protein-binding microarrays: a tool to detect cis-acting elements near promoter regions in rice”.

The chains behind the UniProt entries cited, without tags or fusion partners.
UniProt Q0JBA9, entry or part of it: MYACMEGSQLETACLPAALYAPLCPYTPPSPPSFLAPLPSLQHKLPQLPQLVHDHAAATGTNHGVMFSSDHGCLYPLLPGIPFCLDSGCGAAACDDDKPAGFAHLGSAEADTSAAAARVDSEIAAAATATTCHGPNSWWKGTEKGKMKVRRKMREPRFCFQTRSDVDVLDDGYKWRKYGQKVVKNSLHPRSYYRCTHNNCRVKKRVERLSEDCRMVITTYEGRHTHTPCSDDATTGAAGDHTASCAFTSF

The list shows a part of the results.

The target of the assay is OsWRKY34 (Oryza sativa, UniProt Q0JBA9 1-250). Description: protein-binding microarray (RPBM); PBS, 2% BSA, 51.3 ng/ul salmon testes DNA, 50 uM zinc acetate, 200 nM TF, 25 C, 1 h; high values mean tight binding. As to conditions: protein: recombinant; tags: N-terminal polyhistidine and DsRed monomer fusion (pET32a); label: CyDye5-dUTP incorporated in the synthesized complementary strand; 3' TTTTT single-stranded linker to array surface; dsDNA, one strand shown. The procedure, abridged:
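Transcription factors were each fused at the N-terminus to a polyhistidine tag plus DsRed and expressed in E. coli BL21-CodonPlus before Ni–NTA purification. Binding to a double-stranded custom Agilent array was carried out with 200 nM protein at 25 °C for 1 h in PBS, 2% BSA, salmon testes DNA and 50 µM zinc acetate. The binding signal is per-feature fluorescence intensity, in arbitrary units, on an Axon 4000B scanner.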
On to “TTGTTTTTTTTTTTTTGACCTTTTGTTCCCGTTCTCCATACGGAGTCACCTAGTGCAG”, for which the binding signal was 10800 fluorescence intensity (a.u.).
For the sequence “ACACTACACTAATCTCTACTTTACCACACCCTACAATATACGGAGTCACCTAGTGCAG”, the binding signal is 8940 fluorescence intensity (a.u.).
Consider “ATGTACTACCGTTTATATAATCATATTCTTTGTCGTCTGACGGAGTCACCTAGTGCAG”, for which the binding signal was 8540 fluorescence intensity (a.u.).
In the case of “ATCTCTCTCTCTCTCTCTCTCTCTCTCTCTCTCTCTCTCTCGGAGTCACCTAGTGCAG”, the binding signal was 14200 fluorescence intensity (a.u.).
On to “TTTTGCGGTTCGAGGACGTTTTTTATCTCGCTGACAAGTTCGGAGTCACCTAGTGCAG”, for which the binding signal was 9080 fluorescence intensity (a.u.).
As to “TGCTTGATTTGACCATCCTACATATATTTCAGAATGGTTCCGGAGTCACCTAGTGCAG”, the binding signal is 8700 fluorescence intensity (a.u.).
In the case of “AATGGGTGTTTTTTTAGTTGTTGTGTGTGTTTGGACGATTCGGAGTCACCTAGTGCAG”, the binding signal was 10400 fluorescence intensity (a.u.).
Regarding “AATCTCCCGTATCGTCTCCTCCGCTCCTTGCGCCATCTCGCGGAGTCACCTAGTGCAG”, the binding signal was 8790 fluorescence intensity (a.u.).
The result for “ACACACACACACACACACACACATATATATATATATATATCGGAGTCACCTAGTGCAG” reads 12000 fluorescence intensity (a.u.); that for “AAGGTTCGTTTCATTTTTTTTTACTTAATTAACTATTCCTCGGAGTCACCTAGTGCAG”, 8740 fluorescence intensity (a.u.); that for “CATCATAACTCCATGACGGTTGCTTAGTTGCCCTACAACCCGGAGTCACCTAGTGCAG”, 9400 fluorescence intensity (a.u.).
For “GCCCACCGCTTCCATCGTTCGTCCTCGTCTCCACGCTACCCGGAGTCACCTAGTGCAG”, the binding signal is 13600 fluorescence intensity (a.u.).
Take “TTTTTCGTGTTTGCGTCGCATCCTAATCATAGCTTAAATCCGGAGTCACCTAGTGCAG”: the binding signal was 9560 fluorescence intensity (a.u.).
Turning to “ACGCAGCTTGCCATGATGCCCAAGACGTCCACCACAAGTACGGAGTCACCTAGTGCAG”, the binding signal was 10600 fluorescence intensity (a.u.).
Consider “GGCAACCACGTAATTCCCTCCCTTTTCAGTTACTCATCAACGGAGTCACCTAGTGCAG”, for which the binding signal was 9620 fluorescence intensity (a.u.).
The figure for “TACACACACAAACTTCCAACTTTTTCATCATATCGTTCCACGGAGTCACCTAGTGCAG” is 8760 fluorescence intensity (a.u.); for “CCACACAAGTCACTTTTCTAGCTGCATCTACCCTCTAATCCGGAGTCACCTAGTGCAG” it is 9250 fluorescence intensity (a.u.).
On to “AATCTTGTACTTCATTTGTCTACAGTTTCAACTCTCTTTTCGGAGTCACCTAGTGCAG”, for which the binding signal is 10000 fluorescence intensity (a.u.).
In the case of “GTTGTCCGCAGTTTCAGGTGCTTTGTAGTGTAGTTTAGTTCGGAGTCACCTAGTGCAG”, the binding signal is 9440 fluorescence intensity (a.u.).
For the sequence “CTTTATCTATTTATTCTTCCCCTGGTGTTCCTTCGTCTGTCGGAGTCACCTAGTGCAG”, the binding signal was 9390 fluorescence intensity (a.u.).
On to “ACCTGTGCCGGCCGCCGAGCTCGTTGCCTCTCTCGCCGGCCGGAGTCACCTAGTGCAG”, for which the binding signal was 10100 fluorescence intensity (a.u.).
In the case of “ATTTCGGCTGAGCTAATTTATCGTTATCTGTTAACACATTCGGAGTCACCTAGTGCAG”, the binding signal is 10200 fluorescence intensity (a.u.).
As for “CCCTATTTCTCTCCACCACAATTATCATCTTCTTTTTTTTCGGAGTCACCTAGTGCAG”, the binding signal is 8630 fluorescence intensity (a.u.).
In the case of “CCACGAGCGCCTGCGTCATCCCGTCTCATCGCGAGTCACCCGGAGTCACCTAGTGCAG”, the binding signal is 9100 fluorescence intensity (a.u.).
Regarding “CCTTGGCAGTGGGGCGGAGGGGCGGTGTCGGTGCTGGCGGCGGAGTCACCTAGTGCAG”, the binding signal was 13800 fluorescence intensity (a.u.).
“AAGAGAGAGGCTGATGTGGATTGTCTGACATGTGGGGCCCCGGAGTCACCTAGTGCAG”: the binding signal is 9650 fluorescence intensity (a.u.).
Turning to “ATATGATTTCTGACTCTGTTTTACCATTGTTTTGTTTGTCCGGAGTCACCTAGTGCAG”, the binding signal is 11000 fluorescence intensity (a.u.).
As for “GCCGCACTTTTTTTCTTTCCGGCTTGTGGGCCCCACAAATCGGAGTCACCTAGTGCAG”, the binding signal is 12000 fluorescence intensity (a.u.).
In the case of “GCTGTTTGTTTGTTTTGGCTTAGACTTTTCGACTTATAAGCGGAGTCACCTAGTGCAG”, the binding signal is 10800 fluorescence intensity (a.u.).
Consider “ACGGTTGACTTATTCTTTACATGATGAAAAATCGTGTCTACGGAGTCACCTAGTGCAG”, for which the binding signal was 11700 fluorescence intensity (a.u.).
Take “ATCTCTTTCATCCGATTACTGTGTTTTTTCTGTGGTCCAACGGAGTCACCTAGTGCAG”: the binding signal is 8410 fluorescence intensity (a.u.).
Regarding “ATAGCATATTAGCACCACGTCTCGCCCGTTGTAAACAACTCGGAGTCACCTAGTGCAG”, the binding signal is 8050 fluorescence intensity (a.u.).
With “TTTCTTCTCCACCGACAGCCGCCGTTGCTCGGTTCTCTTCCGGAGTCACCTAGTGCAG”, the binding signal is 11600 fluorescence intensity (a.u.).
On to “AATTGGTTCTTTCTCTGGACACACGATTAACTACGTACGACGGAGTCACCTAGTGCAG”, for which the binding signal was 8420 fluorescence intensity (a.u.).
Consider “TGAGAAACTTCTTTCAGCTGAAGCTACCGTCATAGGTACACGGAGTCACCTAGTGCAG”, for which the binding signal is 8070 fluorescence intensity (a.u.).
“TATTTAATCCCTTTGCATATTTTTTATTAAAATCCTAAATCGGAGTCACCTAGTGCAG”: the binding signal was 8400 fluorescence intensity (a.u.).
For the sequence “GGAGCCACGTGAGCACTACTTTTCTTTCTTTGTTTTTCTCCGGAGTCACCTAGTGCAG”, the binding signal was 8660 fluorescence intensity (a.u.).
The figure for “CAAACGTTCGATGTGGCAGGGTAAAAAATTTTGGGTTGGGCGGAGTCACCTAGTGCAG” is 8100 fluorescence intensity (a.u.); for “TGTTCTGGTTCGGATCTGAGCGGGTGTTGGGTGTTTTCAACGGAGTCACCTAGTGCAG” it is 9230 fluorescence intensity (a.u.); for “CACTAAACTACCTATACTATCTCTACTATCACTTGGCTTTCGGAGTCACCTAGTGCAG” it is 8610 fluorescence intensity (a.u.).
As to “TATATCTATCCTGGTGTAGTACATCCCTGTAGTGTAGGGGCGGAGTCACCTAGTGCAG”, the binding signal is 9560 fluorescence intensity (a.u.).
As for “CAGAATTAGATTTCCCCGGGCCCACCCCTTTTCCATGGCCCGGAGTCACCTAGTGCAG”, the binding signal was 8690 fluorescence intensity (a.u.).
